Test system: Rats SDCD mâles de 52 semaines
Assay: Chronic per os treatment (14 days, twice daily) in the male SDCD rat aged 52 weeks
Type: in vivo
Text: Les essais sont réalisés sur des rats qui présentent des anomalies pondérales associées à un hyperinsulisme et une hyperglycéridémie.
Il est recherché : • d'une part l'effet d'un traitement prolongé du produit de l'exemple 1 et de substances de référence sur ces anomalies, et • d'autre part, la consommation du glucose par le tissu adipeux est mesuré à l'état basal et en présence d'insuline (10⁻⁹ M).
On utilise des rats identiques à ceux de l'étude du traitement aigu, (cf. ci-dessus le paragraphe A- 2.1), à savoir des rats SDCD mâles agés de 52 semaines.
9 jours avant le début de l'expérimentation (J₋₉), sont constitués des lots de rats par randomisation stratifiée sur le poids.
5 jours avant le début de l'expérimentation (J₋₅), les rats sont conditionnés par administration d'une solution de gomme.
Le premier jour de l'expérimentation (J₁), les produits à tester sont administrés à différentes doses aux rats 2 fois par jour. Plus précisémment, les produits sont administrés en suspension dans la gomme entre 9 et 10 heures et 16-17 heures pendant 14 jours. Une pesée quotidienne des animaux traités est effectuée.
Le 15ème jour, les rats (à jeun depuis 18 heures) sont sacrifiés par décapitation. Le sang est recueilli directement dans une cupule. Un aliquote (50 µl) est transféré dans 500 µl d'acétate d'uranyl pour dosage de la glycémie. Un aliquote de 3 ml est transféré dans un tube contenant une solution d'héparine (30 µl pour 1 ml de sang total) et centrifugé pour séparer le plasma. Un autre aliquote de 300 µl est transféré dans un tube contenant 15 µl d'une solution d'EDTA/NaF pour dosage des lactates.
Le tissu adipeux épididymaire est prélevé pour étude métabolique immédiatement après sacrifice.
Pour chaque animal, deux fragments de tissu épididymaire droit et gauche sont émincés aux ciseaux et répartis dans 6 fioles d'incubation. Trois de ces fioles contenant 500 µl de milieu et les autres 500 µl de milieu additionné d'insuline de porc (10⁻⁹ M), la production de CO₂ est donc mesurée en triplicate pour chacun des rats de chaque groupe.

| SMILES | Sérotonine cérébrale (1 mg/kg×2 per os) | Sérotonine cérébrale (2,5 mg/kg×2 per os) | Sérotonine cérébrale (0,5 mg/kg×2 per os) |
| --- | --- | --- | --- |
| CC(Cc1cccc(C(F)(F)F)c1)NCCOC(=O)c1ccccc1 (stereo not drawn) [Benfluorex, 1-(3-trifluorométhylphényl)-2-(β-benzoyloxyéthyl)aminopropane, reference compound] | Diminuée | Diminuée |  |
| COC(CNCCOC(=O)c1ccc(CCNC(=O)CC2c3ccccc3-c3ccccc32)cc1)c1cccc(C(F)(F)F)c1 (single isomer, unassigned) [Exemple 1, Isomère lévogyre du chlorhydratede para-[2-(α-fluorén-9-ylacétylamino) éthyl] benzoatede 2-[(β-méthoxy β-métatrifluorométhylphényl) éthylamino] éthyle] | non modifiée | non modifiée | non modifiée |

Reference: patent publication EP0518769B1, “Ethanolaminebenzoate derivative, process for their preparation and pharmaceutical compositions containing them” (ADIR ET COMPAGNIE, priority 1991, dated 1992)
